# Experimental data: patent KR20160117808A
# These are yes or no findings as the source states them, for the method shown. Binding can be weak; no strength is given.
# Molecular target: sCD40L (Biolegend, USA)
# Experiment: sandwich ELISA, RM9C3 coated (10ug/ml), sCD40L, detection with 5C8-Biotin
binder,measurement,value
"RM9C3 융합 세포주가 생산하는 항 원숭이 CD154 항체 (antibody, V domains shown) VH: EVQLQQSGPELVKPGASVKISCKTSGYTFTEYTIHWVKQSHGESLEWIGGIYPNTGGTNYNQKFKGKATLTVDKSSSTVYMEFRGLTSEDSAVYYCARLLFDCDVDWFAYWGQGTLVTVSA VL: NIVMTQTPKFLLVSAGDRITITCKASQSVNNNVAWYHQKPGQSPKLLIYYASNRYIGVPDRFTGSGYGTDFTFTISTVQAEDLAVYFCQQDHSSLTFGAGTKLELKR",binding,binds
